According to PubChem BioAssay AID190 (DTP/NCI, 2004):
The list is a part of this screen's results and no random one: it gathers tests that were run many times, whatever their T/C, doses with no T/C, and many T/C values between a quarter and a half above the control. Other doses and runs of a compound stand elsewhere. T/C: endpoint of the treated group in % of that of the vehicle group. Some doses have a count of surviving animals in place of a T/C: the source holds a T/C of zero for them, seemingly a mark for toxic or unscored doses. Some doses without a T/C left all or most animals alive at the check, yet need not have been tolerated: survival well below the control is almost never listed, so the zero probably covers shortened survival too. Survivors were counted at the toxicity check, usually on the fifth day, unless a day is given; later deaths do not show. Schedule codes are those of the source, taken here to give the interval after Q, in days (D) or hours (H), and the number of doses after X. Some entries were tested several times; the results are listed from low to high. For survival time, the PubChem record calls one and a half times the control and up active, and a quarter to a half above the control has no call in these data; cut-offs in other NCI protocols can differ. Some T/C values carry the count of animals alive at the toxicity check (mostly the fifth day); where none is given, no animal had died by that day. Additions like (4×) give the number of equal values in this list.

Test system: AKR/Lw mice, AKR lymphoma ip, median survival T/C
Test: NCI In Vivo Anticancer Drug Screen. Data for tumor model Lymphoma AKR (Transplanted) (intraperitoneal) in AKR/Lw mice
Conditions: T/C endpoint: median survival time, higher T/C = longer survival
Experimental: The antitumor activity of compounds was measured in mice bearing transplantable tumors. Survival or tumor size were measured and the results are expressed as the measurement made in the treated group (T) divided by the measurement made in the vehicle treated control group (C). The tumor model used in this assay is Lymphoma AKR (Transplanted) (intraperitoneal) in AKR/Lw mice

[1] = dose: 25.0 mg/kg/injection, schedule: Q01DX009 (ip), vehicle: saline
[2] = dose: 50.0 mg/kg/injection, schedule: Q01DX009 (ip), vehicle: saline
[3] = dose: 50.0 mg/kg/injection, schedule: Q04DX003 (ip), vehicle: saline
[4] = dose: 100.0 mg/kg/injection, schedule: Q01DX009 (ip), vehicle: saline
[5] = dose: 100.0 mg/kg/injection, schedule: Q04DX003 (ip), vehicle: saline
[6] = dose: 200.0 mg/kg/injection, schedule: Q04DX003 (ip), vehicle: saline
[7] = dose: 400.0 mg/kg/injection, schedule: Q04DX003 (ip), vehicle: saline
[8] = dose: 300.0 mg/kg/injection, schedule: Q06HX016 (ip), vehicle: saline
[9] = dose: 450.0 mg/kg/injection, schedule: Q06HX016 (ip), vehicle: saline
[10] = dose: 675.0 mg/kg/injection, schedule: Q06HX016 (ip), vehicle: saline
[11] = dose: 1000.0 mg/kg/injection, schedule: Q06HX016 (ip), vehicle: saline

O=C[C@@H](CO)O[C@H](C=O)n1cnc2c(=O)[nH]cnc21
survivor count (dose: 6.2 mg/kg/injection, schedule: Q01DX009 (ip), vehicle: saline): 10 of 10 | survivor count (dose: 12.0 mg/kg/injection, schedule: Q01DX009 (ip), vehicle: saline): 10 of 10 | survivor count (dose: 12.5 mg/kg/injection, schedule: Q01DX009 (ip), vehicle: saline): 10 of 10 | survivor count (dose: 25.0 mg/kg/injection, schedule: Q01DX005 (ip), vehicle: saline): 7 of 10 | T/C [1]: 88 [9 of 10 alive], 108, 117, 121, 122, 144, 154, 213 % of control | survivor count [1]: 9 of 10 | T/C (dose: 25.0 mg/kg/injection, schedule: Q04DX003 (ip), vehicle: saline): 125 % of control | survivor count (dose: 50.0 mg/kg/injection, schedule: Q01DX005 (ip), vehicle: saline): 8 of 10 | T/C [2]: 87, 100 [8 of 10 alive], 105, 128, 134 [9 of 10 alive], 177 % of control | survivor count [2]: 10 of 10 | T/C [3]: 96, 109, 111 % of control | survivor count [3]: 10 of 10 | survivor count (dose: 100.0 mg/kg/injection, schedule: Q01DX005 (ip), vehicle: saline): 8 of 10 | T/C [4]: 87, 94 [9 of 10 alive], 103 [9 of 10 alive], 133, 139 [9 of 10 alive], 169 % of control | survivor count [4]: 10 of 10 | T/C [5]: 92, 92 [8 of 10 alive], 107, 162 % of control | T/C (dose: 120.0 mg/kg/injection, schedule: Q04DX003 (ip), vehicle: water): 127 % of control | T/C (dose: 200.0 mg/kg/injection, schedule: Q01DX001 (ip), vehicle: saline): 94, 106 (2×), 113 % of control | survivor count (dose: 200.0 mg/kg/injection, schedule: Q01DX005 (ip), vehicle: saline): 7 of 10 | survivor count (dose: 200.0 mg/kg/injection, schedule: Q01DX009 (ip), vehicle: saline): 9 of 10 | T/C [6]: 94 [9 of 10 alive], 100, 102, 148 [9 of 10 alive], 185, 205 % of control | T/C (dose: 300.0 mg/kg/injection, schedule: Q04DX003 (ip), vehicle: saline): 93, 145, 156, 188 % of control | T/C (dose: 400.0 mg/kg/injection, schedule: Q01DX001 (ip), vehicle: saline): 96 [7 of 10 alive], 102 [9 of 10 alive], 118, 127 % of control [8 of 10 alive] | survivor count (dose: 400.0 mg/kg/injection, schedule: Q01DX005 (ip), vehicle: saline): 2 of 10 | T/C [7]: 87 [9 of 10 alive], 122, 174 % of control | survivor count [7]: 2 of 10, 7 of 10, 10 of 10 | survivor count (dose: 480.0 mg/kg/injection, schedule: Q04DX003 (ip), vehicle: water): 4 of 10 | survivor count (dose: 500.0 mg/kg/injection, schedule: Q04DX003 (ip), vehicle: saline): 10 of 10 | survivor count (dose: 800.0 mg/kg/injection, schedule: Q01DX001 (ip), vehicle: saline): 0 of 10, 1 of 10, 2 of 10

C[C@]12CCC(=O)C=C1CC[C@@H]1[C@@H]2[C@@H](O)C[C@@]2(C)[C@H]1CC[C@]2(O)C(=O)CO
survivor count (dose: 100.0 mg/kg/injection, schedule: Q01DX005 (sc), vehicle: steroid suspending solution): 10 of 10 | survivor count (dose: 150.0 mg/kg/injection, schedule: Q01DX005 (sc), vehicle: steroid suspending solution): 10 of 10 | survivor count (dose: 200.0 mg/kg/injection, schedule: Q01DX005 (sc), vehicle: steroid suspending solution): 9 of 10

CCOc1ccc2nc(N)sc2c1
survivor count (dose: 400.0 mg/kg/injection, schedule: Q01DX001 (ip), vehicle: Klucel (hydroxypropylcellulose) (HPC)): 6 of 10

O=C(Nc1cccc(Cl)c1)Oc1ccc2ccccc2c1
T/C [1]: 132 % of control | T/C [2]: 130 % of control | survivor count [5]: 10 of 10 | survivor count [6]: 10 of 10

Nc1n[nH]c(N)n1
survivor count (dose: 37.5 mg/kg/injection, schedule: Q06HX008 (ip), vehicle: saline): 3 of 10 | survivor count (dose: 125.0 mg/kg/injection, schedule: Q06HX004 (ip), vehicle: saline): 10 of 10 | T/C [8]: 87, 100, 103 % of control [9 of 10 alive] | survivor count [8]: 10 of 10 | T/C (dose: 450.0 mg/kg/injection, schedule: Q01DX010 (ip), vehicle: saline): 145 % of control | T/C [9]: 93 and 112 % of control | survivor count [9]: 10 of 10 | survivor count (dose: 500.0 mg/kg/injection, schedule: Q06HX004 (ip), vehicle: saline): 9 of 10 | survivor count (dose: 600.0 mg/kg/injection, schedule: Q01DX009 (ip), vehicle: saline): 9 of 10 | T/C (dose: 675.0 mg/kg/injection, schedule: Q06HX008 (ip), vehicle: saline): 126 % of control | T/C [10]: 93 [8 of 10 alive] and 100 % of control [9 of 10 alive] | survivor count [10]: 9 of 10 | T/C (dose: 800.0 mg/kg/injection, schedule: Q04DX003 (ip), vehicle: saline): 126 % of control | T/C (dose: 1000.0 mg/kg/injection, schedule: Q04DX003 (ip), vehicle: saline): 131 % of control | survivor count (dose: 1000.0 mg/kg/injection, schedule: Q06HX012 (ip), vehicle: saline): 10 of 10 | T/C [11]: 93 % of control [8 of 10 alive] | survivor count [11]: 3 of 10 and 9 of 10 | T/C (dose: 1400.0 mg/kg/injection, schedule: Q04DX003 (ip), vehicle: saline): 125 % of control
